Results are given in words; binding and its absence hold for the method and conditions named. Binding seen in cells or lysates may run through a third protein.
Target: (His)6-tagged hydroperoxide lyase [HPL-(His)6] (A. thaliana)
Test: pull-down; purified (His)6-tagged bait imported into isolated Arabidopsis chloroplasts (2.5 mM Mg-ATP); mixed envelopes solubilised with […] decyl maltoside; Ni-NTA affinity chromatography, size exclusion on Superose 6 (peak I, ~250 kDa); co-purified bands identified by SDS-PAGE with protein sequencing, LOX2 also by western blot; only the target purified

Binder | binding
lipoxygenase 2 (LOX2), endogenous in the envelope of Arabidopsis chloroplasts (enzyme, UniProt P38418 57-896, looked up, lipoxygenase 2 (LOX2), A. thaliana, ~100 kDa band of the plastid envelope; also called 13-lipoxygenase; source: endogenous, envelopes of isolated Arabidopsis chloroplasts) ANIEQEGNTVKEPIQNIKVKGYITAQEEFLEGITWSRGLDDIADIRGRSLLVELISAKTDQRITVEDYAQRVWAEAPDEKYECEFEMPEDFGPVGAIKIQNQYHRQLFLKGVELKLPGGSITFTCESWVAPKSVDPTKRIFFSDKSYLPSQTPEPLKKYRKEELETLQGKNREEVGEFTKFERIYDYDVYNDVGDPDNDPELARPVIGGLTHPYPRRCKTGRKPCETDPSSEQRYGGEFYVPRDEEFSTAKGTSFTGKAVLAALPSIFPQIESVLLSPQEPFPHFKAIQNLFEEGIQLPKDAGLLPLLPRIIKALGEAQDDILQFDAPVLINRDRFSWLRDDEFARQTLAGLNPYSIQLVEEWPLISKLDPAVYGDPTSLITWEIVEREVKGNMTVDEALKNKRLFVLDYHDLLLPYVNKVRELNNTTLYASRTLFFLSDDSTLRPVAIELTCPPNINKPQWKQVFTPGYDATSCWLWNLAKTHAISHDAGYHQLISHWLRTHACTEPYIIAANRQLSAMHPIYRLLHPHFRYTMEINARARQSLVNGGGIIETCFWPGKYALELSSAVYGKLWRFDQEGLPADLIKRGLAEEDKTAEHGVRLTIPDYPFANDGLILWDAIKEWVTDYVKHYYPDEELITSDEELQGWWSEVRNIGHGDKKDEPWWPVLKTQDDLIGVVTTIAWVTSGHHAAVNFGQYGYGGYFPNRPTTTRIRMPTEDPTDEALKEFYESPEKVLLKTYPSQKQATLVMVTLDLLSTHSPDEEYIGEQQEASWANEPVINAAFERFKGKLQYLEGVIDERNVNITLKNRAGAGVVKYELLKPTSEHGVTGMGVPYSISI | no binding
allene oxide cyclase 2 (AOC2), endogenous in the envelope of Arabidopsis chloroplasts (enzyme, UniProt Q9LS02 78-253, looked up, allene oxide cyclase 2 (AOC2), A. thaliana, ~72 kDa (SDS-resistant trimer) and ~24 kDa (monomer) bands of the plastid envelope; Found both as trimer and as monomer; source: endogenous, envelopes of isolated Arabidopsis chloroplasts) PSKVQELSVYEINELDRHSPKILKNAFSLMFGLGDLVPFTNKLYTGDLKKRVGITAGLCVVIEHVPEKKGERFEATYSFYFGDYGHLSVQGPYLTYEDSFLAITGGAGIFEGAYGQVKLQQLVYPTKLFYTFYLKGLANDLPLELTGTPVPPSKDIEPAPEAKALEPSGVISNYTN | no binding

Source: paper PMC6411374, “Substrate channeling in oxylipin biosynthesis through a protein complex in the plastid envelope of Arabidopsis thaliana” (Journal of Experimental Botany, 2019)
